These are yes or no findings as the source states them, for the method shown. Some results given as binding are weak or reduced against the parent protein; the word gives no strength.
What was measured:
[1] = target: His6-MBP-DHFR (UniProt P00374); assay: co-purification on an affinity (IMAC) column; His6-MBP proteins purified under native conditions from E. coli on an IMAC column; co-purified endogenous GroEL detected by Western blot with anti-GroEL antibody and SDS-PAGE
[2] = target: His6-MBP-G3PDH (UniProt P16858); assay: as above

The chains behind the UniProt entries cited, without tags or fusion partners.
UniProt P00374: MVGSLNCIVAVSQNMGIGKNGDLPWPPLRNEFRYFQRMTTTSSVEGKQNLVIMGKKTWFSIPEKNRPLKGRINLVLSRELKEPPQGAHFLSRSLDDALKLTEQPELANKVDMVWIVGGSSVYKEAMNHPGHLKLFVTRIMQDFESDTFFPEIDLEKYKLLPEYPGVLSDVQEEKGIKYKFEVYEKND
UniProt P16858: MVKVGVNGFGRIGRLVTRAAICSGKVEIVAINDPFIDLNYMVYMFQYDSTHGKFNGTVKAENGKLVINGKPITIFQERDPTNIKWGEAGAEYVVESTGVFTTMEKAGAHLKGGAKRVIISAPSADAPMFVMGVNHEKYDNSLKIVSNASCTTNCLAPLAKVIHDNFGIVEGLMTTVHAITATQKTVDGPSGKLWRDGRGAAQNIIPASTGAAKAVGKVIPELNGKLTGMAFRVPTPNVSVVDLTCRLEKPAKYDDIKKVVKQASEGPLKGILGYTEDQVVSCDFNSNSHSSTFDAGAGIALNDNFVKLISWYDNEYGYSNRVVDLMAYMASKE
UniProt P0A6F5: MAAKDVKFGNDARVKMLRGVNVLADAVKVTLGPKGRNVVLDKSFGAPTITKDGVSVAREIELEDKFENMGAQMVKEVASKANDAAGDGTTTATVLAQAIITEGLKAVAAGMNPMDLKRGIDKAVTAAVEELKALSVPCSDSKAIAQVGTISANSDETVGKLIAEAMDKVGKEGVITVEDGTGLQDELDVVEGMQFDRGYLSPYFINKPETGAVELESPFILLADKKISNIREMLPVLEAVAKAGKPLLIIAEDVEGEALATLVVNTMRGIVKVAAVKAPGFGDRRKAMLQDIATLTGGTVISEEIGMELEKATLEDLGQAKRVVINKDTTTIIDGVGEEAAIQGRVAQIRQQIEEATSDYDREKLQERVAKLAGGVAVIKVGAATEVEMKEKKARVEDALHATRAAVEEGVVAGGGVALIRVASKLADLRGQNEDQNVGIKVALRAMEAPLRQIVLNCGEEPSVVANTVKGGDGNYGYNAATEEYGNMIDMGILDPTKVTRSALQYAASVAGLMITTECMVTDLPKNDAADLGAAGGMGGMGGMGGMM

- binding [1]: binds
- binding [2]: binds
Substance: GroEL (from UniProt P0A6F5 1-548)

— article PMC3500312
